# Source: patent US20190241653A1 (NATIONAL RESEARCH COUNCIL OF CANADA, published 2019)
# Results are given in words; binding and its absence hold for the method and conditions named. Some results given as binding are weak or reduced against the parent protein; the word gives no strength.
# T1: receptor(s) of FC5 on HBEC-D3 cells (human microvascular brain endothelial cells) (human) (UniProt Q9NV96)
# T1 sequence (looked up): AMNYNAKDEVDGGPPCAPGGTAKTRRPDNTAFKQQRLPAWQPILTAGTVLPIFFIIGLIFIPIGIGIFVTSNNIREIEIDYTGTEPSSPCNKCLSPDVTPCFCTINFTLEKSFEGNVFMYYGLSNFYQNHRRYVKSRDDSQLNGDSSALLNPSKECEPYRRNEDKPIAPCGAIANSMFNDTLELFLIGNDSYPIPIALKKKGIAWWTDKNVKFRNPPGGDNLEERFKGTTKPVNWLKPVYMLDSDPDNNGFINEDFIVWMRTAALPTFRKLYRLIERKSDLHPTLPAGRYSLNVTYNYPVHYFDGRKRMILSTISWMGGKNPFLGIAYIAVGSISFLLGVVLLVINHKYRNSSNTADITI
# Target: T1, receptor(s) of FC5 on HBEC-D3 cells (human microvascular brain endothelial cells) (human)
# Assay: Mirrorball microplate cytometry on HBEC-D3 cells
row,Binder,binding
1,"FC5-H7 (VHH, Humanized variant of FC5, expressed with His5 and c-myc tags; not shown: His5 and c-myc tags) VHH: EVQLVESGGGLVQPGGSLRLSCAASGFKITHYTMGWFRQAPGKEREFVSRITWGGDNTFYSNSVKGRFTISRDNSKNTLYLQMNSLRAEDTAVYYCAAGSTSTATPLRVDYWGQGTLVTVSS",binds
2,"FC5-H1 (VHH, Humanized variant of FC5, expressed with His5 and c-myc tags; not shown: His5 and c-myc tags) VHH: EVQLVESGGGLVQPGGSLRLSCAASGFKITHYTMGWVRQAPGKGLEWVSRITWGGDNTFYSNSVKGRFTISRDNSKNTLYLQMNSLRAEDTAVYYCAAGSTSTATPLRVDYWGQGTLVTVSS",binds

# Now from value to binder:
row,binding,Binder
1,binds,"FC5-H3 (VHH, Humanized variant of FC5, expressed with His5 and c-myc tags; not shown: His5 and c-myc tags) VHH: EVQLVESGGGLVQPGGSLRLSCAASGFKITHYTMGWFRQAPGKGLEFVSRITWGGDNTFYSNSVKGRFTISRDNSKNTVYLQMNSLRAEDTAVYYCAAGSTSTATPLRVDYWGQGTLVTVSS"
2,binds,"FC5-H2 (VHH, Humanized variant of FC5, expressed with His5 and c-myc tags; not shown: His5 and c-myc tags) VHH: EVQLVESGGGLVQPGGSLRLSCAASGFKITHYTMGWVRQAPGKGLEWVSRITWGGDNTFYSNSVKGRFTISRDNSKNTVYLQMNSLRAEDTAVYYCAAGSTSTATPLRVDYWGQGTLVTVSS"
